PubChem BioAssay AID1224830, NIAID | 2016

Aim: 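Regulators of TLR4 signalling towards TNF-alpha in macrophage-like cells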 (primary screen)
Cell system: human THP-1 monocytic leukaemia cells, TNF dual-luciferase reporter clone, PMA-differentiated to macrophage-like cells
Knock-down reagent: siRNA pool against human genes, 50 nM
Time to read-out: LPS for 4 h, given about 3 days after siRNA transfection
Treatment: bacterial LPS (TLR4 ligand), 10 ng/ml
Measurement: 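Ratio of firefly to renilla light, scaled to the plate median and expressed as a robust z-score per replicate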
Direction: TNF reporter robust z-score: higher = stronger TNF reporter response to LPS
Call rule: 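Each well counts as active if its z-score is over 2.8 or under -1.5; controls are left without a call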
The deposit covers about 18,000 reagents; below is a part drawn at random. Of all reagents, about 2,900 (16%) were called active. 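Calls are made per well; low scores hint the gene aids the LPS response, high scores that it dampens it.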 Unmarked entries are inactive. Repeated entries: four replicate wells of each siRNA pool. Reagent sequences are not shown.

Gene	TNF reporter robust z-score
ELL3	0.21
ELL3	0.81
ELL3	0.86
ELL3	0.05
MON1B	0.39
MON1B	-0.4
MON1B	0.25
MON1B	1.17
TMT1A	-0.94
TMT1A	1.26
TMT1A	-1.15
TMT1A	-0.81
GEMIN4	-1.04
GEMIN4	-0.69
GEMIN4	0.16
GEMIN4	-0.68
BCAP31	-0.92
BCAP31	-0.62
BCAP31	-1.36
BCAP31	-0.18
TEX56P	-1.26
TEX56P	-0.67
TEX56P	-0.57
TEX56P	0.48
IL17RD	-1.1
IL17RD	-1.4
IL17RD	-0.88
IL17RD	0.37
C19orf73	2.38
C19orf73	3.33 (active)
C19orf73	1.18
C19orf73	3.11 (active)
ADCY7	0.88
ADCY7	0.34
ADCY7	0.17
ADCY7	1.01
TM4SF18	-0.52
TM4SF18	-0.67
TM4SF18	-0.66
TM4SF18	-1.06
SCGB2A2	0.47
SCGB2A2	1.54
SCGB2A2	-0.58
SCGB2A2	-0.16
INSIG1	1.03
INSIG1	1.9
INSIG1	2.71
INSIG1	1.92
ADGRL2	-0.77
ADGRL2	-0.25
ADGRL2	-0.58
ADGRL2	4.17 (active)
PRRC2C	1.04
PRRC2C	1.11
PRRC2C	0.86
PRRC2C	1.3
NFX1	1.32
NFX1	1.23
NFX1	3.24 (active)
NFX1	1.68
BAHCC1	2.14
BAHCC1	2.3
BAHCC1	1.61
BAHCC1	1.27
H3C4	0
H3C4	0.48
H3C4	-0.05
H3C4	1.39
EIF3I	-0.43
EIF3I	-1.25
EIF3I	-0.96
EIF3I	-1.5
PDIA4	-0.59
PDIA4	-0.88
PDIA4	-1.18
PDIA4	-0.53
SERP2	0.22
SERP2	-0.04
SERP2	0.13
SERP2	1.38
NEK8	-0.09
NEK8	0.33
NEK8	0.37
NEK8	0.5
ACSM2B	0.44
ACSM2B	0.5
ACSM2B	0.6
ACSM2B	0.87
POLR2L	0.42
POLR2L	-1.05
POLR2L	-0.13
NUTM2G	1.45
NUTM2G	1
NUTM2G	-0.25
NUTM2G	0.12
OR2AG1	0.2
OR2AG1	0.55
OR2AG1	-0.06
OR2AG1	0.46
OMP	0.67
OMP	-0.22
OMP	0.03
OMP	2.08
NSD1	-0.05
NSD1	0.71
NSD1	-1.28
NSD1	-0.42
PFAS	-1.23
PFAS	0.49
PFAS	0.17
PFAS	0.57
CSHL1	-1.29
CSHL1	-1.17
CSHL1	-1.36
CSHL1	-1.1
ZNF467	0.02
ZNF467	0.64
ZNF467	-0.83
ZNF467	0.59
SCN1B	2.24
SCN1B	3.8 (active)
SCN1B	1.95
SCN1B	3.86 (active)
TRPC1	-0.02
TRPC1	1.2
TRPC1	0.91
TRPC1	1.06
S100A7A	-1.25
S100A7A	-0.86
S100A7A	-0.95
S100A7A	-1.44
ADAMTS6	-0.6
ADAMTS6	-0.44
ADAMTS6	-0.07
ADAMTS6	-0.28
PRR25	0.34
PRR25	0.48
PRR25	0.87
PRR25	2.07
DOC2A	1.13
DOC2A	1.58
DOC2A	0.69
DOC2A	0.27

Records listed so far whose target name begins with B or b:
Gene	TNF reporter robust z-score
BCAP31	-0.92
BCAP31	-0.62
BCAP31	-1.36
BCAP31	-0.18
BAHCC1	2.14
BAHCC1	2.3
BAHCC1	1.61
BAHCC1	1.27
